Results as given in PubChem BioAssay AID256 (DTP/NCI, 2004).
The list does not hold the whole screen: it gathers tests that were run many times, whatever their T/C, doses with no T/C, and many T/C values between a quarter and a half above the control. Other doses and runs of a compound stand elsewhere. T/C gives the treated animals as a percentage of the vehicle group. For survival time, this PubChem deposit counts one and a half times the control or more as active, and values a quarter to a half above the control carry no call in these data; other NCI protocols may use other cut-offs. Schedules are NCI's codes, read here as Q, the interval in days (D) or hours (H), X, the number of doses. Some T/C values carry the count of animals alive at the toxicity check (mostly the fifth day); where none is given, no animal had died by that day. Some entries hold several experiments; their values stand side by side, smallest first. Signs of the kind (2×) give the number of equal values in this list. Some schedule codes hold Z or #, which are not explained here.

Tested on: CD2F1 mice, L1210 leukemia ip, survival T/C
Experiment: NCI In Vivo Anticancer Drug Screen. Data for tumor model L1210 Leukemia (intraperitoneal) in CD2F1 (CDF1) mice
Settings: T/C endpoint: mean survival time, higher T/C = longer survival
Outline: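 Activity against a transplanted murine tumor was judged by comparing the compound group with a vehicle group. The outcome in the treated animals was divided by that in the controls.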

## O=P1(N(CCCl)CCCl)NCCCO1 (centres undefined)
dose: 12.5 mg/kg/injection, schedule: Q01DX009 (ip), vehicle: water
  T/C: 101, 108, 111, 112, 114 (2×), 115 (3×), 116, 118 (2×), 124 (3×), 126, 132 % of control
dose: 20.0 mg/kg/injection, schedule: Q01DX007 (ip), vehicle: saline
  T/C: 133 % of control
dose: 20.0 mg/kg/injection, schedule: Q01DX009 (ip), vehicle: saline
  T/C: 126 and 138 % of control
dose: 25.0 mg/kg/injection, schedule: Q01DX001 (ip), vehicle: saline, evaluated on day 5
  T/C: 104 and 107 % of control
dose: 25.0 mg/kg/injection, schedule: Q01DX001 (ip), vehicle: saline, evaluated on day 7
  T/C: 113 % of control
dose: 25.0 mg/kg/injection, schedule: Q01DX001 (ip), vehicle: saline, evaluated on day 35
  T/C: 102 % of control
dose: 25.0 mg/kg/injection, schedule: Q01DX001 (ip), vehicle: saline, evaluated on day 40
  T/C: 113 % of control
dose: 25.0 mg/kg/injection, schedule: Q01DX001 (ip), vehicle: saline, evaluated on day 60
  T/C: 104 and 107 % of control
dose: 25.0 mg/kg/injection, schedule: Q01DX001 (ip), vehicle: water, evaluated on day 5
  T/C: 114 % of control
dose: 25.0 mg/kg/injection, schedule: Q01DX001 (ip), vehicle: water, evaluated on day 30
  T/C: 100 and 110 % of control
dose: 25.0 mg/kg/injection, schedule: Q01DX001 (ip), vehicle: water, evaluated on day 45
  T/C: 114 % of control
dose: 25.0 mg/kg/injection, schedule: Q01DX005 (ip), vehicle: water
  T/C: 119, 120, 130, 143 % of control
dose: 25.0 mg/kg/injection, schedule: Q01DX009 (ip), vehicle: saline
  T/C: 125 and 141 % of control
dose: 25.0 mg/kg/injection, schedule: Q01DX009 (ip), vehicle: water
  T/C: 115, 119, 124 (2×), 128, 129, 131, 132, 133, 134, 136 (2×), 138, 141, 146, 149 % of control (2×)
dose: 31.25 mg/kg/injection, schedule: Q01DX001 (ip), vehicle: water
  T/C: 111, 112 (2×), 113, 114, 117, 118, 125 % of control (2×)
dose: 37.5 mg/kg/injection, schedule: Q01DX001 (ip), vehicle: saline
  T/C: 103, 115, 118, 126, 150, 270 % of control
dose: 40.0 mg/kg/injection, schedule: Q01DX009 (ip), vehicle: saline
  T/C: 130 and 149 % of control
dose: 40.0 mg/kg/injection, schedule: Q04DX003 (ip), vehicle: saline
  T/C: 141 % of control
dose: 50.0 mg/kg/injection, schedule: Q01DX001 (ip), vehicle: DMSO
  T/C: 128 and 136 % of control
dose: 50.0 mg/kg/injection, schedule: Q01DX001 (ip), vehicle: saline, evaluated on day 5
  T/C: 114, 118, 143 % of control
dose: 50.0 mg/kg/injection, schedule: Q01DX001 (ip), vehicle: saline, evaluated on day 7
  T/C: 125 % of control
dose: 50.0 mg/kg/injection, schedule: Q01DX001 (ip), vehicle: saline, evaluated on day 30
  T/C: 107, 113, 117 [5 of 6 alive], 120 (2×), 123, 126 % of control
dose: 50.0 mg/kg/injection, schedule: Q01DX001 (ip), vehicle: saline, evaluated on day 35
  T/C: 110 and 143 % of control
dose: 50.0 mg/kg/injection, schedule: Q01DX001 (ip), vehicle: saline, evaluated on day 40
  T/C: 123 and 125 % of control
dose: 50.0 mg/kg/injection, schedule: Q01DX001 (ip), vehicle: saline, evaluated on day 60
  T/C: 114, 115, 118 % of control (2×)
dose: 50.0 mg/kg/injection, schedule: Q01DX001 (ip), vehicle: saline, evaluated on day 90
  T/C: 100, 110 (2×), 114, 115, 116 % of control (2×)
dose: 50.0 mg/kg/injection, schedule: Q01DX001 (ip), vehicle: water, evaluated on day 5
  T/C: 130 % of control
dose: 50.0 mg/kg/injection, schedule: Q01DX001 (ip), vehicle: water, evaluated on day 30
  T/C: 112, 115, 116, 117, 118 (2×), 123, 125, 130, 133, 141, 229 % of control
dose: 50.0 mg/kg/injection, schedule: Q01DX001 (ip), vehicle: water, evaluated on day 35
  T/C: 124 % of control
dose: 50.0 mg/kg/injection, schedule: Q01DX001 (ip), vehicle: water, evaluated on day 45
  T/C: 130 % of control
dose: 50.0 mg/kg/injection, schedule: Q01DX005 (ip), vehicle: water
  T/C: 143, 152, 166, 175 % of control
dose: 50.0 mg/kg/injection, schedule: Q01DX009 (ip), vehicle: water
  T/C: 95, 140, 148, 149, 152, 158, 169, 170, 171, 173, 174, 178 (2×), 181, 185, 190, 196 % of control
dose: 50.0 mg/kg/injection, schedule: Q04DX003 (ip), vehicle: saline
  T/C: 130 % of control
dose: 50.0 mg/kg/injection, schedule: Q## X001 (ip), vehicle: saline
  T/C: 126 % of control
dose: 60.0 mg/kg/injection, schedule: Q04DX003 (ip), vehicle: water
  T/C: 145 % of control
dose: 60.0 mg/kg/injection, schedule: Q12HX003 (ip), vehicle: saline
  T/C: 130 % of control
dose: 62.5 mg/kg/injection, schedule: Q01DX001 (ip), vehicle: DMSO, evaluated on day 20
  T/C: 121 % of control
dose: 62.5 mg/kg/injection, schedule: Q01DX001 (ip), vehicle: DMSO, evaluated on day 25
  T/C: 113 and 114 % of control
dose: 62.5 mg/kg/injection, schedule: Q01DX001 (ip), vehicle: DMSO, evaluated on day 40
  T/C: 125 % of control
dose: 62.5 mg/kg/injection, schedule: Q01DX001 (ip), vehicle: Klucel (hydroxypropylcellulose) (HPC)
  T/C: 134 % of control
dose: 62.5 mg/kg/injection, schedule: Q01DX001 (ip), vehicle: saline with Tween-80
  T/C: 128 % of control
dose: 62.5 mg/kg/injection, schedule: Q01DX001 (ip), vehicle: saline, evaluated on day 30
  T/C: 116, 121, 126, 130, 133 (2×), 134, 135, 136 % of control
dose: 62.5 mg/kg/injection, schedule: Q01DX001 (ip), vehicle: saline, evaluated on day 35
  T/C: 108, 115, 125, 140 % of control
dose: 62.5 mg/kg/injection, schedule: Q01DX001 (ip), vehicle: saline, evaluated on day 40
  T/C: 97 % of control
dose: 62.5 mg/kg/injection, schedule: Q01DX001 (ip), vehicle: saline, evaluated on day 45
  T/C: 116, 119, 142 % of control
dose: 62.5 mg/kg/injection, schedule: Q01DX001 (ip), vehicle: saline, evaluated on day 60
  T/C: 117 % of control
dose: 62.5 mg/kg/injection, schedule: Q01DX001 (ip), vehicle: water, evaluated on day 30
  T/C: 97, 110, 119, 120, 121 (3×), 122 (2×), 123 (3×), 124, 126, 127 (6×), 128, 129, 130 (2×), 131, 132 (3×), 134 (2×), 135, 136, 137 (2×), 138, 139, 142, 144 (2×), 145, 150, 151, 172 % of control
dose: 62.5 mg/kg/injection, schedule: Q01DX001 (ip), vehicle: water, evaluated on day 35
  T/C: 112 and 160 % of control
dose: 62.5 mg/kg/injection, schedule: Q01DX001 (ip), vehicle: water, evaluated on day 40
  T/C: 125 and 128 % of control
dose: 62.5 mg/kg/injection, schedule: Q01DX001 (ip), vehicle: water, evaluated on day 45
  T/C: 121 and 135 % of control
dose: 62.5 mg/kg/injection, schedule: Q01DX001 (ip), vehicle: water, evaluated on day 60
  T/C: 121 % of control
dose: 64.8 mg/kg/injection, schedule: Q01DX001 (ip), vehicle: water
  T/C: 142 % of control
dose: 75.0 mg/kg/injection, schedule: Q01DX001 (ip), vehicle: saline, evaluated on day 5
  T/C: 128 % of control
dose: 75.0 mg/kg/injection, schedule: Q01DX001 (ip), vehicle: saline, evaluated on day 30
  T/C: 124, 128, 132, 137, 146, 270 % of control
dose: 80.0 mg/kg/injection, schedule: Q01DX007 (ip), vehicle: saline
  T/C: 138 % of control
dose: 90.0 mg/kg/injection, schedule: Q01DX001 (ip), vehicle: saline
  T/C: 139 % of control
dose: 100.0 mg/kg/injection, schedule: Q01DX001 (ip), vehicle: DMSO, evaluated on day 30
  T/C: 141 % of control
dose: 100.0 mg/kg/injection, schedule: Q01DX001 (ip), vehicle: DMSO, evaluated on day 60
  T/C: 148 % of control
dose: 100.0 mg/kg/injection, schedule: Q01DX001 (ip), vehicle: Klucel (hydroxypropylcellulose) (HPC)
  T/C: 136 and 141 % of control
